The source of these data is article PMC9018728.

Sequences of proteins named here, by UniProt entry; tags and fusion partners are left off.
UniProt Q92754: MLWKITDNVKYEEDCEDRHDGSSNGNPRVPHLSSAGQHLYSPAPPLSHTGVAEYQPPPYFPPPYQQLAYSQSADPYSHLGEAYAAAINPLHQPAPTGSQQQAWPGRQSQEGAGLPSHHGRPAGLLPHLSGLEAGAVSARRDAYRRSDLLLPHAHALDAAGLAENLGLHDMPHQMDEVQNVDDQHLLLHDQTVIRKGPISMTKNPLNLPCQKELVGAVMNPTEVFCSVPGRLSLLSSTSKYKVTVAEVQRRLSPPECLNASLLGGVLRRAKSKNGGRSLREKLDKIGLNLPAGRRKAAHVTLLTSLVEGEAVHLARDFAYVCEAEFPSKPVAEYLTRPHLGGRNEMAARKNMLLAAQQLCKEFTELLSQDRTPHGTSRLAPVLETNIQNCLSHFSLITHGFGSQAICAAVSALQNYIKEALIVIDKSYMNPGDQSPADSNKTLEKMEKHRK

This assay has as its target T1, HA-ZEB1 (doxycycline-induced in MCF7-V-ZEB1 cells) (UniProt P37275).
T1 sequence: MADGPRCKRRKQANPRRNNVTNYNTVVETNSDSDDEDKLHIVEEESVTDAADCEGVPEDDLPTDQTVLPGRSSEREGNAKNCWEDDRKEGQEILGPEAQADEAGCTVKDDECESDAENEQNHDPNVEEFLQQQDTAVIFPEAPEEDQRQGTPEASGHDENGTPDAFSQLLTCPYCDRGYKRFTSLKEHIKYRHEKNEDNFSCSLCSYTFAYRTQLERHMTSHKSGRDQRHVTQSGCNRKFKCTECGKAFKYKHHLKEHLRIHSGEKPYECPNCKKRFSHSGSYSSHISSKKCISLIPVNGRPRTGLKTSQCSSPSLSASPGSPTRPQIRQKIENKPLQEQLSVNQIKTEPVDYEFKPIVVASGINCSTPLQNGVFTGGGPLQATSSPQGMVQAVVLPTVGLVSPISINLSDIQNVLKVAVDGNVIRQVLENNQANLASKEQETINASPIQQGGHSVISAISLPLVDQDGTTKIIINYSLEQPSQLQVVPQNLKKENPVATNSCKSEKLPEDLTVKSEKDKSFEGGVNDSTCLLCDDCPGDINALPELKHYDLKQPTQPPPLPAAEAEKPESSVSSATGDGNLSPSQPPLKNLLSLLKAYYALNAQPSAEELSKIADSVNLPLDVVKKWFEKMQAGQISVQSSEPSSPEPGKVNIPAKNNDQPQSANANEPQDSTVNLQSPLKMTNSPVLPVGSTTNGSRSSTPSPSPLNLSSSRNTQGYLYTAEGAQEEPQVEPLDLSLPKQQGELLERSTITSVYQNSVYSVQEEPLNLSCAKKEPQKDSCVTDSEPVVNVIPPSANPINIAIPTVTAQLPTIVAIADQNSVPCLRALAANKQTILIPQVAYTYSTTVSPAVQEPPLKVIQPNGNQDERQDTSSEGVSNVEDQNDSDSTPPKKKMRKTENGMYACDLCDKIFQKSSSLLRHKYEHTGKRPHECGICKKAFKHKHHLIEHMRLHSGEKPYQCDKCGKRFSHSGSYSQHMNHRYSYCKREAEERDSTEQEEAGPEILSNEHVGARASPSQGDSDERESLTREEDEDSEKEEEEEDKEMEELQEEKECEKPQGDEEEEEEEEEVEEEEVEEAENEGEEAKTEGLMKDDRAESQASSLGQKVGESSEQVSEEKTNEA
The assay is described as follows: co-IP; co-IPs from whole-cell extracts (Supplementary Fig. 5b); cells and the precipitated protein not told in the text shown.

Results are given in words; binding and its absence hold for the method and conditions named. Binding seen in cells or lysates may run through a third protein. Some results given as binding are weak or reduced against the parent protein; the word gives no strength. Where a sequence is shown, tags or fusion partners need not be part of it.

Take AP2γ (from UniProt Q92754 1-450): the binding entry is “binds”.

B1: FOXA1 (protein, UniProt P55317 1-472)
chain: MLGTVKMEGHETSDWNSYYADTQEAYSSVPVSNMNSGLGSMNSMNTYMTMNTMTTSGNMTPASFNMSYANPGLGAGLSPGAVAGMPGGSAGAMNSMTAAGVTAMGTALSPSGMGAMGAQQAASMNGLGPYAAAMNPCMSPMAYAPSNLGRSRAGGGGDAKTFKRSYPHAKPPYSYISLITMAIQQAPSKMLTLSEIYQWIMDLFPYYRQNQQRWQNSIRHSLSFNDCFVKVARSPDKPGKGSYWTLHPDSGNMFENGCYLRRQKRFKCEKQPGAGGGGGSGSGGSGAKGGPESRKDPSGASNPSADSPLHRGVHGKTGQLEGAPAPGPAASPQTLDHSGATATGGASELKTPASSTAPPISSGPGALASVPASHPAHGLAPHESQLHLKGDPHYSFNHPFSINNLMSSSEQQHKLDFKAYEQALQYSPYGSTLPASLPLGSASVTTRSPIEPSALEPAYYQGVYSRPVLNTS
With B1, the binding result was “binds”.
